Earlier results as cited in patent publication US20150274639A1, “METHODS OF USE FOR COMPOSITIONS COMPRISING A BIOCIDAL POLYAMINE” (Curza Global, LLC, priority 2013, published 2015).

System: biofilms of MRSA and P. aeruginosa
Details: understanding of the inventors, no own test described; cited from earlier work

CC(C)(C)CC(C)(C)c1ccc(OCCOCC[N+](C)(C)Cc2ccccc2)cc1 [benzethonium chloride]
biofilm dispersal effect (comparison antimicrobials): not seen
